In the supplement of paper PMC12889115:
Some of the results follow. Values are raw readings; no control value is given beside them.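 First-pass screen: polymyxin B was added at a level that permeabilizes the Salmonella outer membrane while sparing the inner membrane. DMSO wells, with and without polymyxin B, defined maximum growth. Because plates differed from one another, each plate's data were ranked separately and the compounds with the lowest OD600 were carried forward as hits.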

System: Salmonella enterica serovar Typhimurium SL1344
Experiment: bacterial growth OD600 after 18 h with compound and polymyxin B; higher = more bacterial growth (less inhibition)
Details: 50 µM, Mueller-Hinton broth

Structure (SMILES)	bacterial growth OD600 (polymyxin B 0.75 µg/mL)	bacterial growth OD600 (polymyxin B 1 µg/mL)
Cc1cc(C)n(CCN(C)C(=O)CC2(c3ccccc3C)CC(=O)N(Cc3cccnc3)C2=O)n1 (stereo unspecified)	0.824	
C=CCO[C@H]1[C@H](NC(=O)CSC)c2ccccc2C12CCN(Cc1cccc(OC)c1OC)CC2	0.893	
COc1ccc(CN2CCC3(CC2)c2ccccc2[C@@H](NC(=O)c2ccco2)[C@@H]3OC)c(F)c1	0.855	
O=C(C[C@@H]1C[C@@H]2C=C[C@H]1C2)NCc1cccnc1-n1cnc2ccccc21		0.883
Cc1cc(C(=O)N(CCc2ccccc2)CC2CCCN(C)C2)nn1C (stereo unspecified)		0.863
COC(=O)C1CCN(Cc2nc(-c3ccc(C(F)(F)F)cc3)oc2C)CC1	0.731	
CCOC(=O)N1CCN(C(=O)CC(c2cccc(O)c2)c2ccccc2O)CC1 (stereo unspecified)		0.939
COc1cccc(OCc2nc(C(=O)NCc3cc(F)ccc3C)co2)c1		0.798
O=C(c1ccnnc1)N1CCC(C2CCN(Cc3cccc(F)c3F)CC2)C1 (stereo unspecified)	0.843	
C#CCN(C(=O)CCC1(Cc2ccc(OC)c3ccccc23)CCC(=O)N1)C1CCCCC1 (stereo unspecified)	0.545	
O=C(NCC1CC(Cc2ccc(F)cc2)=NO1)c1cc(F)c(F)cc1F (stereo unspecified)	0.844	
CN(C)C(=O)N1CCC(C(=O)N2CCCC(N(C)CCc3ccccc3)C2)CC1 (stereo unspecified)		1.07
CCCNC(=O)N(C)CC1CCCN(CCc2ccccc2OC)C1 (stereo unspecified)		1.04
O=C(Cn1cncn1)N1CCC2(CCCN(Cc3ccccc3F)C2)C1 (stereo unspecified)		0.887
CCC(C)CC(=O)NCC1Cc2cc(C)cc(-c3ccc(OC)nn3)c2O1 (stereo unspecified)	0.839	
Cn1cc(CN2CCCC2C(=O)Nc2ccc(-c3cccc(F)c3)cc2)cn1 (stereo unspecified)		0.894

Exported in markdown: two of the compounds above

| Structure (SMILES) | bacterial growth OD600 (polymyxin B 0.75 µg/mL) | bacterial growth OD600 (polymyxin B 1 µg/mL) |
| --- | --- | --- |
| C#CCN(C(=O)CCC1(Cc2ccc(OC)c3ccccc23)CCC(=O)N1)C1CCCCC1 (stereo unspecified) | 0.545 |  |
| O=C(NCC1CC(Cc2ccc(F)cc2)=NO1)c1cc(F)c(F)cc1F (stereo unspecified) | 0.844 |  |

(next part)

Structure (SMILES)	bacterial growth OD600 (polymyxin B 0.75 µg/mL)	bacterial growth OD600 (polymyxin B 1 µg/mL)
COc1cc(CC2(CCC(=O)NC(C)C34CC5CC(CC(O)(C5)C3)C4)CCC(=O)N2)ccc1F (stereo unspecified)	0.826	
CCCn1cc(CN2CCC(CO)(Cc3ccccc3Cl)CC2)c(C)n1		0.906
CN(CC1CCCCO1)C(=O)CC1(c2ccccc2)CC(=O)N(CCCOc2cccnc2)C1=O (stereo unspecified)	0.855	
Cc1ncc2c(c1CNC(=O)Cc1ccsc1)CCN(C(=O)C(c1ccccc1)c1ccccc1)C2	0.717	
COCCNC(=O)c1ccc(OC2CCN(Cc3ccccn3)CC2)c(Cl)c1		0.876
CCOC(=O)N1CCC(NC(=O)C2CC23CCN(C(=O)/C=C/c2ccc(F)cc2F)CC3)CC1 (stereo unspecified)	0.756	
COC(=O)CN(C)C(=O)C1CCC(=O)N(CCc2ccc(OC)cc2)C1 (stereo unspecified)		0.888
O=C1CCCN1CC1CCN(Cc2nc(-c3cccc(Cl)c3)no2)CC1		0.764
Cc1cnccc1CNC(=O)CC(c1ccccc1)c1ccc2c(c1)OCO2 (stereo unspecified)		0.795
CCNC(=O)N1CCCC(CCc2ccccc2)C1 (stereo unspecified)	0.533	
CN(Cc1ccc(F)cc1)Cc1nc(Cc2ccccc2Cl)no1		0.783
CCN(CC)c1ncccc1CNC(=O)Cn1nc2ccccc2n1		1
c1ccc(Oc2ncccc2CNCc2cccn2-c2ncccn2)cc1	0.864	
O=C(Nc1cnn(-c2ccc(C(=O)N3CCOc4ccccc4C3)cc2)c1)C1CCOCC1	0.82	
COc1cccc(N2C[C@@H]3C[C@@H](c4cccc(OC)c4OC)N4CCC[C@@]34C2=O)c1	0.913	
